Experimental findings from patent US20240294593A1 are described below.

The chains behind the UniProt entries cited, without tags or fusion partners. Residues count along the entry.
UniProt Q15116, residues 25-167: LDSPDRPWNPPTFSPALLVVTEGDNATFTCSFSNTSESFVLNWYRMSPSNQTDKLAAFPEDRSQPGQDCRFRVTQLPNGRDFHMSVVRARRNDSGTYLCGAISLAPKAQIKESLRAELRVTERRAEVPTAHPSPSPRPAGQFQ

These are yes or no findings as the source states them, for the method shown. Some entries that bind do so weakly or less than the wild type.

The target in experiment [1] is human PD-1-His (human) (UniProt Q15116). As to the kind of experiment: Octet. On the technique in general: Biolayer interferometry detects binding as a change in optical thickness at a sensor tip.
For experiment [2] the target is unchanged. As to the kind of experiment: Octet; legend of FIG. 66.
The target is the same in experiment [3]. The experiment is described as follows: Octet (BLI); antibody captured on AHC biosensors, dipped into multiple concentrations of PD-1-His.
Experiment [4] has the same target. As to the kind of experiment: Octet (Example 7A).

B1: mAb C H1.132_L1 (antibody, V domains shown)
VH: EVQLVESGGGLVQPGGSLRLSCAASGFTFSSFGMHWVRQAPGKGLEWVSYISSGSSIIYYADSVKGRFTISRDNAKNSLYLQMNSLRAEDTAVYYCARGGWLVWSPDYWGQGTLVTVSS
VL: DIVMTQSPDSLAVSLGERATINCKSSQSLLNSGNQKNYLTWYQQKPGQPPKLLIYWASTRESGVPDRFTGSGSGTDFTLTISSLQAEDVAVYYCQNDYSYPFTFGSGTKLEIKR
Take B1: the binding entry in the experiment with human PD-1-His (human) [1] and in the experiment with human PD-1-His (human) [2] was “binds” in each case.

B2: XENP28519 (humanized mAb A, bivalent mAb) (antibody, human IgG1, kappa, V domains shown)
VH: QVQLQESGPGLVKPSQTLSLTCTVSGHSITSDYAWNWIRQPPGKKLEWIGYISYSGYTTYNPSLKSRVTISRDTSKNQFSLKLSSVTAADTAVYFCARDLDYGPWFAYWGQGTLVTVSS
VL: DIQMTQSPSSLSASVGDRVTITCRASENIHNYLAWYQQKPGKSPKLLVYNVKTLADGVPSRFSGSGSGTDYTLTISSLQPEDFATYYCQHFWSSPWTFGGGTKVEIKR
For B2, the binding result in the experiment with human PD-1-His (human) [3] and with human PD-1-His (human) [4] was “binds” in each case.
